## Library screen at single concentrations

Chains of the proteins cited; added tags and fusions are not shown.
UniProt P9WPC5, whole entry: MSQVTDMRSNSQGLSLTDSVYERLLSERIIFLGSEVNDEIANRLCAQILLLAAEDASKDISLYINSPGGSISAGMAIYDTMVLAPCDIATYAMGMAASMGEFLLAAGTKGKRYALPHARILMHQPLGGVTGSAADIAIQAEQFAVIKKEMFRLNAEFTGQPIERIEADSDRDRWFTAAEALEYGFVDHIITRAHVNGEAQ
UniProt P9WPC3, whole entry partner: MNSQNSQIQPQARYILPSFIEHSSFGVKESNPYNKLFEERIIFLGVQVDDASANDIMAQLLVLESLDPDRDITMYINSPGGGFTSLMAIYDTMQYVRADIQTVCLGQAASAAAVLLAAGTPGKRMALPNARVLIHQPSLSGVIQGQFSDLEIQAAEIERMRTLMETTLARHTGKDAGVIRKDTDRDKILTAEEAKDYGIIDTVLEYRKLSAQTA
UniProt I6X8D2, whole entry: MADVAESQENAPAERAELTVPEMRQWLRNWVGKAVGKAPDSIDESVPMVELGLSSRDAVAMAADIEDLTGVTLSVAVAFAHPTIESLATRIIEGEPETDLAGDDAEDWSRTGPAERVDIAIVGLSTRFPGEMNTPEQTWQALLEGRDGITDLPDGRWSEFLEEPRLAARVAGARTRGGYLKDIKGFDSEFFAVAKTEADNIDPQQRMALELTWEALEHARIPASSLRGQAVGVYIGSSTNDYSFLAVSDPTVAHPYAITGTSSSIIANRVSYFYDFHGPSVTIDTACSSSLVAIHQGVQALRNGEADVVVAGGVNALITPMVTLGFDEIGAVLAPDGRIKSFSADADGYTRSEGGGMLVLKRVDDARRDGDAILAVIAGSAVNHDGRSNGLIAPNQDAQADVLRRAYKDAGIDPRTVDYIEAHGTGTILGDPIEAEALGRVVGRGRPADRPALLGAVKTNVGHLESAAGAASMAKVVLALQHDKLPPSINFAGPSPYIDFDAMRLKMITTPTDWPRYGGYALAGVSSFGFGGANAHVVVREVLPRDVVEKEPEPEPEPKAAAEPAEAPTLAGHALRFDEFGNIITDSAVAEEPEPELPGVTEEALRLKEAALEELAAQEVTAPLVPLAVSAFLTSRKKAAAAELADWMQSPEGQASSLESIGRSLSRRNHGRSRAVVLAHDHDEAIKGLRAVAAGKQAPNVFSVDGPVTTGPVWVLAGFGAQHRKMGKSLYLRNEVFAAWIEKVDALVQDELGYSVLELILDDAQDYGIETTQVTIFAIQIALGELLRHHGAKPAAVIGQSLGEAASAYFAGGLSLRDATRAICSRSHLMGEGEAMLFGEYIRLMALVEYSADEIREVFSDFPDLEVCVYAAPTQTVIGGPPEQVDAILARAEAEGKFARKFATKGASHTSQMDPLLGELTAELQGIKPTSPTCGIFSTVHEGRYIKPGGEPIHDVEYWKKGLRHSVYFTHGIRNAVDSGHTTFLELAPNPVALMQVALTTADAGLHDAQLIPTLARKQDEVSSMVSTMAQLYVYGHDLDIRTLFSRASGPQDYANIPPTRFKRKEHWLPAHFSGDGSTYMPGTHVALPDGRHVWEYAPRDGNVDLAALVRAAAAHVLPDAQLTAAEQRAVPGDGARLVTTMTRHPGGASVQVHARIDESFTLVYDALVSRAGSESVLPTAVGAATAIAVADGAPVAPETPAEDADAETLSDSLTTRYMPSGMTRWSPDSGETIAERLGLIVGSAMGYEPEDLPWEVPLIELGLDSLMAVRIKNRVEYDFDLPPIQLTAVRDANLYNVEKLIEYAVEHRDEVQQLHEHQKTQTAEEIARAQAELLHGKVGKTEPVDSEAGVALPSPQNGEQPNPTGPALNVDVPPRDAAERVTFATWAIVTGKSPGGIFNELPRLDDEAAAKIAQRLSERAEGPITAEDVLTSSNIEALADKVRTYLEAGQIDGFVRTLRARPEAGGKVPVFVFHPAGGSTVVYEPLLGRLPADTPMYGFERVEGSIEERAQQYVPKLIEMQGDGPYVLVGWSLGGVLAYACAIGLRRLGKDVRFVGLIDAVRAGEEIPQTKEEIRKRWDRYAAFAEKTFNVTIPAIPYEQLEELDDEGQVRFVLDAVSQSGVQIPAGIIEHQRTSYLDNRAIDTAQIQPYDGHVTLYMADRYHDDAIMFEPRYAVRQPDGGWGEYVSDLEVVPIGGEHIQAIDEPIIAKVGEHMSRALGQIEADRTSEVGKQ

Measurements from “University of Dundee, Small-Polar-MMV Screening Library” (2021), ChEMBL document CHEMBL3988442.

Values are the deposited “Percent Effect”, in %.
The record does not define 0% and 100%; most values in the screen are far below 50% and negative numbers occur (in some assays of this library far below -100).
The compounds are a random part of those screened.
Two or more numbers in one place are separate tests of the same structure; such repeats can differ widely.
A dash means the value is not listed here; it may have been measured.

Leishmania in macrophages: 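Cell assay of Leishmania donovani living inside macrophages; the read-out is not stated. Tested at 30 µM. Direction is inferred from retests: higher values go with stronger inhibition. About 69,000 compounds were tested under these conditions; 1.5% (about 1,000) showed 50% or more at least once.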
Toxoplasma: 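Assay of Toxoplasma gondii numbers, read through their beta-galactosidase reporter with a colour substrate. Tested at 10 µM. Higher reads as fewer parasites (inferred from which compounds were picked for retests). Size under these conditions: about 67,000 compounds, about 260 of them at 50% or above in at least one test.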
ClpP1P2: 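ClpP1P2, Mycobacterium tuberculosis (UniProt P9WPC5 and UniProt P9WPC3). Protease assay of ClpP1P2, read by the AMC dye that it sets free. Tested at 50 µM. Direction is inferred from only a few compounds that gave an IC50; most scored high, so higher reads as stronger inhibition. Most other retested compounds had strongly negative values. About 69,000 compounds were tested under these conditions; 0.015% (about 10) showed 50% or more at least once.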
T. brucei: 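Whole-parasite assay of Trypanosoma brucei over 72 hours; the read-out is not stated. Compounds at 30 µM. Direction is inferred from retests: higher values go with stronger inhibition. Values scatter widely below zero; nearly all retest evidence comes from the higher of the two concentrations used. About 64,000 compounds were tested under these conditions; 1.5% (about 940) showed 50% or more at least once.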
Pks13 thioesterase: 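Polyketide synthase Pks13, Mycobacterium tuberculosis (UniProt I6X8D2). Enzyme assay of the thioesterase domain of polyketide synthase 13; the read-out is not stated. Tested at 30 µM. The record gives no direction; the compounds picked for IC50 retests had high values, so higher reads as stronger inhibition. About 67,000 compounds were tested under these conditions; 0.46% (about 300) showed 50% or more at least once.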

Compound	Leishmania in macrophages	Toxoplasma	ClpP1P2	T. brucei	Pks13 thioesterase
Cc1nc(-c2ccccc2)n(CC(=O)NC2CCCC2)n1	13	-0.3774	-5.886	1.828	-16.93
c1ccc(CN2CCOC3(COCCN(c4ncccn4)C3)C2)nc1 (centres unmarked)	-	-	-15.44	-	-13.45
Cn1cc(C2CCCN2C(=O)CCc2cnn(-c3ccccc3)c2)cn1 (centres unmarked)	15.59	5.648	18.78	-16.93	-
CCOc1ncccc1NC(=O)C1CCS(=O)(=O)C1 (centres unmarked)	35.19	-17.91	-17.15	11.49	-17.94
Cc1nccc(C(=O)N2CCOC(c3nc(C(C)C)n[nH]3)C2)n1 (centres unmarked)	19.1	-0.892	-18.48	-	-9.507
CCN1CC(C(=O)N2CCc3cc(C(N)=O)n(C)c3C2)CC1=O (centres unmarked)	2.973	2.665	11.11	-	-33.13
CN1CCC(c2cncc(-c3cccc(Cl)c3)n2)CC1	18.06	25.54	-0.01454	40.81	-6.053
[H][C@]12CN(C(=O)c3cnn(C)c3)C[C@@]1([H])OCCN(S(C)(=O)=O)C2	2.101	5.661	-	-44.77	-
CCC(=O)NCC(c1ccc(SC)cc1)N1CCc2sccc2C1 (centres unmarked)	6.319	3.008	-15.31	-2.044	-5.799
CC(C)C(NC(=O)NCc1cccnc1N(C)C)c1cccs1 (centres unmarked)	10.09	-3.384	-6.037	-43.45	9.586
CCC[C@H]1CN(C2CCOCC2)C[C@@H]1NC(=O)CCCn1ccnc1	-6.011	7.134	-10.53	-74.18	6.731
CC(C)(C)C(=O)N1C[C@H](c2ccsc2)[C@H]2CN(Cc3cccs3)CC[C@H]21	-	-	-1.334	-	-35.79
O=C(c1cccnc1N1CCOC(c2ccc(F)cc2)C1)N1CCCC1 (centres unmarked)	-8.036	2.924	5.18	-64.58	-7.94
CN(C)C(=O)Cc1nc(CN2CCCCC2Cn2cncn2)cs1 (centres unmarked)	7.735	13.79	-25.08	-54.68	3.477
COc1ccc(Cn2c(CCc3c(C)n[nH]c3C)n[nH]c2=O)cc1	32.11	-4.893	2.083	-2.332	-5.605
CCN1CC(NC(=O)Nc2nc(C)n(C(C)C)n2)CC1=O (centres unmarked)	13.4	-0.23	-9.51	-12.04	-7.164
COc1ccc(CN2CCCN(c3cc(C(N)=O)ccn3)CC2)cc1	-19.08	7.493	-1.806	-50.52	27.25
Cc1nccn1CC1CCN(C(=O)c2cccs2)CC1	46.33 & 34.97	2.419	-17.02	-28.01	-15.38
CCN1N=C(C(=O)N2CCCC(c3noc(C)n3)C2)CCC1=O (centres unmarked)	-9.006	8.316	-12.34	-29.28	-8.244
COc1ccccc1Oc1ncccc1CNC(=O)[C@@H](N)[C@@H](C)O	25.39	2.454	-1.21	-17.88	-25.58
CCCc1ccc(CN2CCC3(CCC(=O)N(C(C)C(=O)O)C3)CC2)o1 (centres unmarked)	21.5	13.68	-10.83	-75.67	-16.74
CC(C)CNC(=O)N1CCC2(CC1)OC(C(N)=O)Cn1ccnc12 (centres unmarked)	-	-	-2.271	-	-7.46
CCSc1cncc(N2CCC(C(=O)NC(C)C(C)C)CC2)n1 (centres unmarked)	6.811	-1.932	-15.02	8.608	1.507
COCCOc1ccc(NC(=O)C2CCCN(C(N)=O)C2)cn1 (centres unmarked)	6.942	-	8.707	-45.58	-10.73
O=C1CSC(C(F)(F)F)c2c(O)nn(C3CCCCC3)c2N1 (centres unmarked)	-9.047 & 6.366	-8.673	2.093	-37.54	4.858
CN(Cc1ccc(F)cc1)C(=O)CN1CCCC(Cn2cncn2)C1 (centres unmarked)	25.07	-	5.215	-11.85	-37.12
CNC(=O)CS(=O)(=O)Cc1cc(Cl)c2c(c1)OCCO2	13.88	-3.824	-14.37	-	-5.751
CC(=O)NCC1CCN(CC2CCOc3ccccc3C2)CC1 (centres unmarked)	26.18	5.292	0.2286	12.06	-6.655
COCC1CCN(C(=O)c2cc(-c3ccco3)nc3c(Cl)cccc23)C1 (centres unmarked)	-5.808	2.163	-13.54	-40.25	66.33
CS(=O)(=O)c1ccc(CNC(=O)Nc2cn[nH]c2)cc1	-6.355	2.393	-15.12	-20.76	0.9543
COc1cccc(-c2noc(-c3ccc(NCCCN)nc3)n2)c1OC	10.02	2.703	-5.76	40.42	-
CC(c1nc(-c2ccccc2)no1)N1CC(n2cccn2)C1 (centres unmarked)	13.82	4.637	-6.325	-11.35	-26.58
Cc1nnn2c1COC(CNC(=O)c1cccn1C)C2 (centres unmarked)	9.869	1.367	5.147	37.98	-3.663
Cc1csc(C2CCCN(C(=O)c3cc(Cl)c[nH]3)C2)n1 (centres unmarked)	2.703	5.112	7.733	-28.39	6.953
[H][C@]12CC[C@]([H])(CN(C(=O)Cc3ccccn3)C1)N(Cc1ccccc1)C2=O	4.042	-15.12	-	-22.28	-
COc1ccccc1S(=O)(=O)N1CC(N(C)C)Cc2ccccc21 (centres unmarked)	2.942	-11.88	-5.252	-64.26	-18.1

The first 5 entries again:

- Cc1nc(-c2ccccc2)n(CC(=O)NC2CCCC2)n1 | Leishmania in macrophages: 13%; Toxoplasma: -0.3774%; ClpP1P2: -5.886%; T. brucei: 1.828%; Pks13 thioesterase: -16.93%
- c1ccc(CN2CCOC3(COCCN(c4ncccn4)C3)C2)nc1 (centres unmarked) | ClpP1P2: -15.44%; Pks13 thioesterase: -13.45%
- Cn1cc(C2CCCN2C(=O)CCc2cnn(-c3ccccc3)c2)cn1 (centres unmarked) | Leishmania in macrophages: 15.59%; Toxoplasma: 5.648%; ClpP1P2: 18.78%; T. brucei: -16.93%
- CCOc1ncccc1NC(=O)C1CCS(=O)(=O)C1 (centres unmarked) | Leishmania in macrophages: 35.19%; Toxoplasma: -17.91%; ClpP1P2: -17.15%; T. brucei: 11.49%; Pks13 thioesterase: -17.94%
- Cc1nccc(C(=O)N2CCOC(c3nc(C(C)C)n[nH]3)C2)n1 (centres unmarked) | Leishmania in macrophages: 19.1%; Toxoplasma: -0.892%; ClpP1P2: -18.48%; Pks13 thioesterase: -9.507%